These are yes or no findings as the source states them, for the method shown. Some results given as binding are weak or reduced against the parent protein; the word gives no strength.
Columns and labels:
[1] = biological target: recombinant integrin αVβ6 (R&D Systems) (UniProt P06756); experiment: plate ELISA, integrin coated at 1 µg/mL, detection with KU32-52, OD 450 nm
[2] = biological target: recombinant integrin αVβ3 (R&D Systems) (UniProt P06756); experiment: as above
[3] = biological target: recombinant integrin αVβ6 (R&D Systems) (UniProt P06756); experiment: plate ELISA (FIG. 14a)
[4] = biological target: recombinant integrin αVβ3 (R&D Systems) (UniProt P06756); experiment: plate ELISA (FIG. 14a)
[5] = biological target: recombinant integrin αVβ6 (R&D Systems) (UniProt P06756); experiment: plate ELISA, detection with KU32-52 (FIG. 14a)
[6] = biological target: recombinant integrin αVβ3 (R&D Systems) (UniProt P06756); experiment: plate ELISA, detection with KU32-52 (FIG. 14a)
[7] = biological target: recombinant integrin αVβ6 (R&D Systems) (UniProt P06756); experiment: integrin binding assay, told in the summary
[8] = biological target: recombinant integrin αVβ3 (R&D Systems) (UniProt P06756); experiment: integrin binding assay, told in the summary

The chains behind the UniProt entries cited, without tags or fusion partners. Where a name states a change or a piece, a line headed by the entry shows the natural chain unless it says otherwise.
UniProt P06756: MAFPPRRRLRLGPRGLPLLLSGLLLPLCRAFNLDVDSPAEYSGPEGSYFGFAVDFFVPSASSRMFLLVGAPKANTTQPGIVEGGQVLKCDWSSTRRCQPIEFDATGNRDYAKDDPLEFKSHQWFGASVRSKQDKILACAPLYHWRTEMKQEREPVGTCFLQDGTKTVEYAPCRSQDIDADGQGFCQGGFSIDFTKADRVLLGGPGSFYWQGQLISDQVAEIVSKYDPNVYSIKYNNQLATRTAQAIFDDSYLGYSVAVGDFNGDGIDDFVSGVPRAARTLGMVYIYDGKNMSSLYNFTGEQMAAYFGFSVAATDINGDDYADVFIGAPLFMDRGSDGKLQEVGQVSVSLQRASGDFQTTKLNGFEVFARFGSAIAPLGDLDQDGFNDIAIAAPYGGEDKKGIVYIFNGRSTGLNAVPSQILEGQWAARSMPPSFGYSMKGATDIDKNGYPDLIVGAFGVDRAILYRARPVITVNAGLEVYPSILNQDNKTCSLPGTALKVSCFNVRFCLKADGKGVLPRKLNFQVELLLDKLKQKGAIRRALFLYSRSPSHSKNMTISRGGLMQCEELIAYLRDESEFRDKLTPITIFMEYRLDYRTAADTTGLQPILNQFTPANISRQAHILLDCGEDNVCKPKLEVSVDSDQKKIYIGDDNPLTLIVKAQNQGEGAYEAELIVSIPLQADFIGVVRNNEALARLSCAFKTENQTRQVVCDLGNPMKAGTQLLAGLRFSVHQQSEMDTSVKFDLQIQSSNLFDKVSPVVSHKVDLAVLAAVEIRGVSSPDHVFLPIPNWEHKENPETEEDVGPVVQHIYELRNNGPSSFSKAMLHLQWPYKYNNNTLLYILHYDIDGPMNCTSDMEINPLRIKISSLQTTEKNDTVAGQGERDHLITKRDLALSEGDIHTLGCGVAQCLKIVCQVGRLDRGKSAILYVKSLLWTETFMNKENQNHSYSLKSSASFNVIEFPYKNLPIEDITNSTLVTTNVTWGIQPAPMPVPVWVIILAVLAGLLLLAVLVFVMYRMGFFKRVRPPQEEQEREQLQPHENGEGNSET

- binding [1]: binds
- binding [2]: binds
- binding [3]: binds
- binding [4]: binds
- binding [5]: binds
- binding [6]: binds
- binding [7]: binds
- binding [8]: binds
B1: recombinant human IL-32θ(A94V) (ligand, not shown: small tags and cut ends)
chain: MCFPKVLSDDMKKLKARMHQAIERFYDKMQNAESGRGQVMSSLAELEELTPLLEKERDGLRCRGNRSPVPDVEDPATEEPGESFCDKVMRWFQVMLQRLQTWWHGVLAWVKEKVVALVHAVQALWKQFQSFCCSLSELFMSSFQSYGAPRGDKEELTPQKCSEPQSSK

— US20250270270A1
